Results: paper PMC4106906

Target: T1, human BIN1 isoform 1, myc-tagged (human) (UniProt O00499)
T1 sequence: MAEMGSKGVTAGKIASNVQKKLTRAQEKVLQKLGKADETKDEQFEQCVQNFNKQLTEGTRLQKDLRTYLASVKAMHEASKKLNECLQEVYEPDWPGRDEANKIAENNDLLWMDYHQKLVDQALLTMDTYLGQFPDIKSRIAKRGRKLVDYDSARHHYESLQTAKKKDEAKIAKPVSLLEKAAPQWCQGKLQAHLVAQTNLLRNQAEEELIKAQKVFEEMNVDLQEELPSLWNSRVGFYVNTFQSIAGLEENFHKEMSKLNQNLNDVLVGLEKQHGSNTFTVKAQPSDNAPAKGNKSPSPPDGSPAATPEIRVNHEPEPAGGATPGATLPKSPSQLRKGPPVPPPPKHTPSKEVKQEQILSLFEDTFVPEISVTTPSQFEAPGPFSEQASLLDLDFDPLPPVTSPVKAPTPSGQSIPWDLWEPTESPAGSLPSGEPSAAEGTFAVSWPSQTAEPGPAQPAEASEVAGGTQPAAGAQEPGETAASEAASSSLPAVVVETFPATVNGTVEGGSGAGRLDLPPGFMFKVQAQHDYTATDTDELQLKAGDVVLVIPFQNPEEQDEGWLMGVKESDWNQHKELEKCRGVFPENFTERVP
Test: co-IP; co-transfection of flag-tagged iCLU mutants MT1-8 with BIN1.1; cells and immunoprecipitating antibody not told

truncated iCLU MT8 (frame-shift CLU mutant lacking the C-terminus coiled-coil region) (human) (domain or fragment)
binding: no binding

No constants are given. Whether binding was seen depends on the method and setting. Binding seen in cells or lysates may run through a third protein. Where a sequence is shown, tags or fusion partners need not be part of it.
